Results of single-concentration screens

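Phenotypic screen: M. tuberculosis growth, glucose 7H9 medium, 3 days; the read-out is not stated. Tested at 50 µM. The record gives no direction; compounds that gave an IC50 in retests scored well above the rest, so higher reads as more growth inhibition. Of about 69,000 compounds tested this way, about 760 (1.1%) reached 50% or more in at least one test.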

Values are the deposited “Percent Effect”, in %. The record does not define 0% and 100%; most values in the screen are far below 50% and negative numbers occur (in some assays of this library far below -100). Compounds were drawn at random from those tested, without regard to their results. Two or more numbers in one place are separate tests of the same structure; such repeats can differ widely.

SMILES | percent effect
CCn1cnnc1CN(C)Cc1c[nH]nc1-c1ccc(F)cc1 | -5
CC(NCCCn1ccnc1)c1ccc(N2CCOC2=O)cc1 (stereo unspecified) | -11.03
c1ncn(CC2CCCCN2Cc2noc(C3CC3)n2)n1 (stereo unspecified) | -43.22
CC(C)n1cc(CN2CCCN(C(=O)C(C)n3cccn3)CC2)cn1 (stereo unspecified) | -3.346 and -24.43
N#Cc1ccc(CNC2CCN(CCc3ccncc3)CC2)cc1 | -6.07
Cc1ccc(S(=O)(=O)NC(C)(C)CN)c(F)c1.Cl | 25.19 and 2.006
Cc1ccc(C(=O)N2CC(=O)N(Cc3ccco3)CC(O)C2)cc1 (stereo unspecified) | -12.44
O=C(O)C(F)(F)F.[H][C@]12CC[C@@]3(N=C(CC)N(C)C3=O)[C@@]1([H])CN(Cc1ccc(F)cc1)C2 | 15.34
O=C(O)C(F)(F)F.[H][C@@]12CN(Cc3nccn3C)C[C@]1([H])OCCN2c1ccnc(N(C)C)n1 | 3.762
Cc1cc(C)n(CC2CN(CC(=O)Nc3cccnc3)CCO2)n1 (stereo unspecified) | 12.06
CC(=O)c1c(F)cccc1NCC(O)c1ccc(F)c(F)c1 (stereo unspecified) | 0.8948
c1c[nH]c2nc(C3CCNCC3)nc-2c1 | 17.61
CNS(=O)(=O)CC(=O)N(Cc1c(F)cccc1F)C1CCCC1 | 14.74
CCc1ccccc1NC(=O)c1cccc(N(C)S(C)(=O)=O)c1C | 5.316
[H][C@@]12CN(C(=O)c3cnccn3)C[C@@]1([H])N(CC1CCCC1)C(=O)CO2 | 5.909 and 17.75
Cc1ccnc(C2CN(c3ccnc(C)n3)C2)n1 | 4.987
CCCc1n[nH]c(C2CN(C(=O)CCCn3ccnc3)CCO2)n1 (stereo unspecified) | 18.04
COCCN1CC[C@@H](O)[C@@H]1Cc1ccccc1.O=C(O)C(F)(F)F | -0.3253
CC1=NN(c2ccc(C(=O)N3CCCC(n4ccnc4)C3)cc2)CC1 (stereo unspecified) | 7.802
Cn1c(CCC(=O)N2CCCC3(CNC(=O)O3)C2)nc2cccnc21 (stereo unspecified) | 9.504
Cc1cccc(C)c1CN1C(=O)CC2(CCSC2)C1=O (stereo unspecified) | 6.645 and 27.44
CCc1cc(C(F)(F)F)c2c(C3CCN(C(=O)COC)CC3)noc2n1 | 29.73
c1cnc(-c2nc(CN3CCCC(Cn4cncn4)C3)cs2)nc1 (stereo unspecified) | 7.094
CC(C)n1c(=O)nc2n1C(=O)N(c1ccc(F)cc1)C2 | -6.325 and -0.3908
O=C(O)C1(Oc2ccccc2)CCN(c2ccncc2)CC1 | 7.146
CCc1nnc2ccc(NCC3(O)CCOCC3)nn12 | 25.35
CC(=O)c1ccc(NC(=O)c2ccc3c(c2)C2(CCCCC2)CN3)cc1.O=C(O)C(F)(F)F | 15.59
NC(=O)c1ccc(N2CCN(Cc3cccc4nsnc34)CC2)nc1 | 30.55
CCNC(=O)N1CCCC(C(=O)c2cccc(OC(C)C)c2)C1 (stereo unspecified) | -17.3
O=C(c1ccc[nH]1)N1CCOCC2(C1)CN(c1ccccc1)C(=O)CO2 (stereo unspecified) | 1.489
O=C(C1CC=CC1)N1CCC2(CCN(Cc3cccc(F)c3)CC2)C1 | 15.84 and 18.97
CC(Cn1cccn1)NC(=O)NCCCN1CCCCCC1=O (stereo unspecified) | 16.78 and -0.766
O=S(=O)(Cc1ccccc1)NCCc1nnc2n1CCC2 | 7.156
O=C(Cn1nnn(-c2cccs2)c1=O)NCC1CCOC1 (stereo unspecified) | -14.81 and -8.528
COCCN1CCN(CC(=O)NC2(C#N)CCCC2)CC1 | -0.5189 and 2.167
COc1c(C(=O)NCC(C)Sc2ccccc2)c(C)nn1C (stereo unspecified) | 12.17
O=C(NCc1ccccc1OCC1CC1)C1CCOC1 (stereo unspecified) | -0.721
N#Cc1cc(NC(=O)c2ccccn2)ccc1N1CCC(O)CC1 | 8.1 and 26.63
CCc1nnc2n1CC(CNc1cnc3ccccc3n1)CC2 (stereo unspecified) | -29.48
CCn1ccnc1C1CCN(C(=O)Nc2ccc(OC)cc2)CC1 | -27.59
Cc1ccc2oc(=O)n(CCC(=O)N3CCN(C)C(=O)C3)c2c1 | 42.63
O=C(O)C(F)(F)F.O=C(O)C(F)(F)F.[H][C@@]12CN(CC3CC3)C[C@]1([H])OCCN2c1ccc(C)nn1 | 14.55
Cc1ncc(CNCC2CCC(C(N)=O)CC2)n1-c1ccccc1 (stereo unspecified) | -62.24
O=S(=O)(Cc1ccccc1)NCC1CCCN(Cc2cccs2)C1 (stereo unspecified) | -14.89
Cc1ccccc1C(=O)N1Cc2c(Cn3ccnc3)nn(C)c2C1.O=C(O)C(F)(F)F | 4.992
O=C(CCCn1cncn1)N1CCC2(CCCN(CC3CC3)C2=O)C1 (stereo unspecified) | -19.14
CCC(CNC(=O)c1ccccn1)N1CCc2ccccc2C1 (stereo unspecified) | -26.34 and 5.572
CC(=O)NCc1ccc(C(=O)N2CCCC(n3cncn3)C2)o1 (stereo unspecified) | -42.09
c1cncc(COCC2CN(Cc3ccco3)Cc3nccn3C2)c1 (stereo unspecified) | -5.602 and 0.1313
CCc1nc(C2CCCN2CCC(=O)N2CCc3ccccc32)no1 (stereo unspecified) | 3.086 and -33.2
[H][C@@]12COC[C@@H](CC(=O)N3CCCC3)[C@]1([H])CN(Cc1ccsc1)C2 | -21.58
CC1(C)CNC(=O)c2nc(C3CCCN(S(C)(=O)=O)C3)[nH]c2C1 (stereo unspecified) | 21.02
CCN(Cc1ccc(OC)c(F)c1)C(=O)c1ccc(C)[nH]c1=O | -4.386
Oc1nc(C2CCN(Cc3ccccn3)CC2)cc2ccccc12 | -51.18
CCC(CC)C(=O)NS(=O)(=O)CCc1ccccc1 | -14.26 and 3.849
CNC(=O)C1CCN(c2ncnc3c2CCN(C(=O)C2CC2)C3)C1 (stereo unspecified) | -6.237 and -11.15
COCCCNC(=O)Nc1cccc(Cl)c1-n1cccn1 | -32.08
CCOC(=O)N1CCC(Nc2cc(CC)nc3c(C)c(C)nn23)CC1 | 4.609
COC(CNC(=O)C1CCCC1)c1ccc(C)s1 (stereo unspecified) | -11.85
CC(C)N1Cc2cccc(NCC(=O)N(C)C3CCCCC3)c2C1 | -39.49
OCCC1CN(c2ncnc3[nH]cnc23)CCN1Cc1ccccc1F (stereo unspecified) | 18.53
[H][C@@]12CCN(C(=O)c3ccccn3)C[C@]1([H])OCCN(c1ccsc1)C2=O | -3.465 and 3.465
Cn1ccc2cc(CC3COCCN(C(=O)c4ccccn4)C3)ccc21 (stereo unspecified) | -15.06
O=C(NCc1nc(C2CCCCC2)no1)C1CC(=O)N(C2CC2)C1 (stereo unspecified) | -46.19
Cc1nccn1CCCC(=O)N1CCC2(CCC(=O)N(C(C)C)C2)CC1 | -4.674
COc1ccc(Cn2cc(C(C)O)nn2)cc1 (stereo unspecified) | -19.66 and -11.5
Cc1n[nH]c(C2CN(C(=O)c3cc(Cl)c[nH]3)CCO2)n1 (stereo unspecified) | 3.731 and -3.791
CCn1c(C)cc(C(=O)NCc2ccc(CS(C)(=O)=O)cc2)c1C | 3.905 and 11.8
CC(C)Nc1ncccc1C(=O)NCc1cnc(N(C)C)n1C | 3.564
Cc1nc(C(=O)NCc2ccc(N3CCNC(=O)C3)c(F)c2)cs1 | -28.3
CS(=O)(=O)NCCCNC(=O)NCc1ccccc1 | -17.37
[H][C@]12CC[C@]([H])(CN(Cc3cccnc3)C1)N(C(=O)Cc1ccncc1)C2 | -44.82
CC(C)Cc1ncc2c(n1)CN(c1nc(N(C)C)nc3c1CCCC3)C2 | 12.37 and 18.11
Cc1ncc(C(=O)N2CC(C(=O)N3CCCCCC3)C2)c(C)n1 | -22.73
CC1c2ccc(F)cc2CCN1C(=O)c1[nH]c(=O)[nH]c(=O)c1N (stereo unspecified) | 5.452
Cc1cccc(CN2CCC3(CCC(C(=O)N(C)C)O3)CC2)n1 (stereo unspecified) | -0.4707
CC(=O)c1ccc(N2CCCC(CO)(Cc3ccccc3C)C2)nc1 (stereo unspecified) | 26.17
CN1C(=O)CC(C(=O)O)C12CCN(c1ccc3c(n1)CCCC3)CC2 (stereo unspecified) | 24.08
CC(C)(C)NC(=O)NC(=O)CN1C=Nc2ccccc2S1(=O)=O | 5.085
Cc1ccc2c(n1)N(CC1CC1)CCN(Cc1ccco1)C2.O=C(O)C(F)(F)F.O=C(O)C(F)(F)F | 7.088 and 16.52
Cn1ccc(C(=O)N2CCCC(Cc3cccc4ncccc34)C2)n1 (stereo unspecified) | -13.03
O=C(O)C(F)(F)F.[H][C@@]12CCN(S(=O)(=O)c3cccnc3)[C@]1([H])CC[C@@H](c1nc(C)no1)O2 | -36.54
Cc1cc(NC(=O)NCc2ccccn2)n(C)n1 | 2.905
CCS(=O)(=O)c1ncc(CN2CCN(C)CC2)n1CCc1ccccc1 | 30.2
Cc1cc(C)c2nc(C)cc(C(=O)NC(C)c3nnn[nH]3)c2c1 (stereo unspecified) | -7.881
COc1ccc(Br)cc1CC(=O)N1CCCC1 | 2.197
OC(CNCCc1nnc2ccccn12)c1ccc(F)c(F)c1 (stereo unspecified) | 20.48
O=C(CCN1CCc2ccccc21)N1C[C@@H](O)[C@H](N2CCOCC2)C1 | 3.495

5 of the entries, repeated:

{"smiles": "CS(=O)(=O)NCCCNC(=O)NCc1ccccc1", "percent effect": -17.37}
{"smiles": "CCCc1n[nH]c(C2CN(C(=O)CCCn3ccnc3)CCO2)n1", "stereo": "stereo unspecified", "percent effect": 18.04}
{"smiles": "O=C(NCc1nc(C2CCCCC2)no1)C1CC(=O)N(C2CC2)C1", "stereo": "stereo unspecified", "percent effect": -46.19}
{"smiles": "COc1ccc(Br)cc1CC(=O)N1CCCC1", "percent effect": 2.197}
{"smiles": "[H][C@]12CC[C@]([H])(CN(Cc3cccnc3)C1)N(C(=O)Cc1ccncc1)C2", "percent effect": -44.82}

The values are deposited in ChEMBL (CHEMBL3988442, “University of Dundee, Small-Polar-MMV Screening Library” (2021)).